The subject of one data set is CaHSF8-GST. Nature of the data set: EMSA. The note with it: EMSA: 20 uL; 5x binding buffer printed as 1 M Tris-HCl pH 7.5, 5 M NaCl, 1 M KCl, 1 M MgCl2, 0.5 M EDTA pH 8.0, 10 mg/mL BSA (apparently stock concentrations); recombinant protein; protein details: GST (pDEST-15); label: Cy5. Background: In EMSA bound probe runs differently from free probe, usually more slowly.

The target in another data set is CaKAN3-GST (UniProt A0A2G2Z1N1). In words: EMSA. The settings on record: EMSA: 20 uL; 5x binding buffer printed as 1 M Tris-HCl pH 7.5, 5 M NaCl, 1 M KCl, 1 M MgCl2, 0.5 M EDTA pH 8.0, 10 mg/mL BSA (apparently stock concentrations); recombinant protein; protein details: GST (pDEST-15); label: Cy5.

No signal at the amounts used counts as a negative. At least one verdict rests on a figure or table, not on a statement of the authors. For at least one entry, the source does not settle the construct or the ends of the probe.

With “AATGTTTTAAAAAAAATTAC (double strand) [M CaR1A-6 HSE probe]”, the binding result in the data set with CaHSF8-GST is given as “no binding”.
Same read-out and setting: next, “AATGTTTTTTCTAGAATTAC (double strand) [WT CaR1A-6 HSE probe]”: “binds”; “AATTCTAGAAAAAATTCTAGAAAAAATTCTAGAAAA (double strand) [3x HSE probe]”: “binds”.
On the same count and under the same terms, next, “ATTACTAAAAAAAATTTATG (double strand) [M CaR1A HSE probe]”: “no binding”.
“ATTACTTTCTAAGATTTATG (double strand) [WT CaR1A HSE probe]”: the binding result with CaHSF8-GST is reported as “binds”.
Regarding “CAAAGTAAAAAAAAAGAAAT (double strand) [M CaR1B12 HSE probe]”, the binding result in the data set with CaHSF8-GST was “no binding”.
On the same count and under the same terms, next, “CAAAGTTTCTAGAAAGAAAT (double strand) [WT CaR1B12 HSE probe]”: “binds”; “CAATCCGAAAAAAAAAGTGA (double strand) [M CaR1B23 HSE probe]”: “no binding”; “CAATCCGTTCTAGAAAGTGA (double strand) [WT CaR1B23 HSE probe]”: “binds”.
For “CGGGCTAGAAAAAAACCGTC (double strand) [M CaR1B11 AACAA probe]”, in the data set with CaKAN3-GST, the binding result was “no binding”.
For “CGGGCTAGAACAAAACCGTC (double strand) [WT CaR1B11 AACAA probe]”, in the data set with CaKAN3-GST, the binding result is recorded as “binds”.
For “CGTCATAAAAAAAAGTAGAT (double strand) [M CaR1B11 HSE probe]”, the binding result in the data set on CaHSF8-GST is given as “no binding”.
Still for that read-out and setting: next, “CGTCATTTCTAGAAGTAGAT (double strand) [WT CaR1B11 HSE probe]”: “binds”.
As for “CTCTTTGAAAAAAGAAGGGA (double strand) [M CaR1B23 AACAA probe]”, in the data set with CaKAN3-GST, the binding result is listed as “no binding”.
For “CTCTTTGAAACAAGAAGGGA (double strand) [WT CaR1B23 AACAA probe]”, the binding result in the data set with CaKAN3-GST is reported as “binds”.
Still for that read-out and setting: to “CTTTTTGGAAAAACTCCAGT (double strand) [M CaR1A-6 AACAA probe]” belongs “no binding”.
As to “CTTTTTGGAACAACTCCAGT (double strand) [WT CaR1A-6 AACAA probe]”, the binding result with CaKAN3-GST is listed as “binds”.
Take “GAAAGAAATAAAAAGAGTTA (double strand) [M CaR1B12 AACAA probe]”: the binding result in the data set with CaKAN3-GST is on record as “no binding”.
Still for that read-out and setting: to “GAAAGAAATAACAAGAGTTA (double strand) [WT CaR1B12 AACAA probe]” belongs “binds”.
Consider “GACCTAAAAAAAAAATCACT (double strand) [M CaR1B16 HSE probe]”, for which, in the data set on CaHSF8-GST, the binding result is listed as “no binding”.
In the case of “GACCTTTCTAGAAAATCACT (double strand) [WT CaR1B16 HSE probe]”, the binding result in the data set with CaHSF8-GST is “binds”.
For “TGAAAAAAATAAAAAGATCC (double strand) [M CaR1B16 AACAA probe]”, the binding result with CaKAN3-GST is given as “no binding”.
The same measure, in the same setting: to “TGAAAACAATAACAAGATCC (double strand) [WT CaR1B16 AACAA probe]” belongs “binds”; to “TGCGCTCCCTAAAAAAGGAG (double strand) [M CaR1A AACAA probe]”, “no binding”; to “TGCGCTCCCTAACAAAGGAG (double strand) [WT CaR1A AACAA probe]”, “binds”.

The record behind these values is paper PMC10368638.
